Results are given in words; binding and its absence hold for the method and conditions named.
Target: T1, Shrub (Drosophila) (UniProt Q8T0Q4)
T1 sequence: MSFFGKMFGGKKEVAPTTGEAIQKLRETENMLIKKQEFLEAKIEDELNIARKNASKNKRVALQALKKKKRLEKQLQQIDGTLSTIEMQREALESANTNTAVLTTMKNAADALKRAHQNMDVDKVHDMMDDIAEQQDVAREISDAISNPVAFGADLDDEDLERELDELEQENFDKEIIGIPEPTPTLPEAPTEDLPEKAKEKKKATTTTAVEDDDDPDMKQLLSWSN
Assay: two-hybrid; yeast Y190 transformed with pGBKT7 and pVP16 constructs; Shrub as bait; selection on media lacking tryptophan and leucine, 3 days at 30°C; read-out β-galactosidase activity in yeast extracts

binding: no binding
Substance: Mop Bro-domain mutant I201D/V205D (aa 1-389) (Drosophila) (domain or fragment)
